The supplement of paper PMC10849652
This is one part of the list.

By UniProt entry, the sequences of proteins in these tests, tags left out. Where a name states a change or a piece, a line headed by the entry shows the natural chain unless it says otherwise.
UniProt O43482, whole entry, looked up: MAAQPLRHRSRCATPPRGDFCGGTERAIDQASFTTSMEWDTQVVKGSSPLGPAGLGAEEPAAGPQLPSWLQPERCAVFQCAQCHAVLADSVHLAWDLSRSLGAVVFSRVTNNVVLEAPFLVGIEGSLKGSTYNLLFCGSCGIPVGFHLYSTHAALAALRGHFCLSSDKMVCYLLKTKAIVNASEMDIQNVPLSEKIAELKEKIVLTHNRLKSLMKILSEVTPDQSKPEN
UniProt Q9BXB4: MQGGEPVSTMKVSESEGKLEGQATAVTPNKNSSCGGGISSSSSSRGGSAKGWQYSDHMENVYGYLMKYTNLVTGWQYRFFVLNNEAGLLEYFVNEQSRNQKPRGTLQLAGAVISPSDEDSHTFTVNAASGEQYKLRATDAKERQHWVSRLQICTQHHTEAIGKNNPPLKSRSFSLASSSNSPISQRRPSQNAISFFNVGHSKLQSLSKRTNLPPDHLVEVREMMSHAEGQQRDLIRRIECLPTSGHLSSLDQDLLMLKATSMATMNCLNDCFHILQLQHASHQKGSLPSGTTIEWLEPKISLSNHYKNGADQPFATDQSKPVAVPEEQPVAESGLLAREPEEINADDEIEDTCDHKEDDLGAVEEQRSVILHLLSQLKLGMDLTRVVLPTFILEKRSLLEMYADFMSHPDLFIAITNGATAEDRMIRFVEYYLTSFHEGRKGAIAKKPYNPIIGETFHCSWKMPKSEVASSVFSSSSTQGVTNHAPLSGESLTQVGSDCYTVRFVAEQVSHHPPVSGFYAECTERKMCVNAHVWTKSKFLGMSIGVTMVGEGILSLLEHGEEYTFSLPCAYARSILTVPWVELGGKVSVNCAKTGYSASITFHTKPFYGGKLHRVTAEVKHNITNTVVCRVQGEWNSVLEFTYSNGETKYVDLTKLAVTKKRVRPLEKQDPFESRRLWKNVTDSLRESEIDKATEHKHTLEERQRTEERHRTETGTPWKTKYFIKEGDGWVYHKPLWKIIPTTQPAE
UniProt P04181: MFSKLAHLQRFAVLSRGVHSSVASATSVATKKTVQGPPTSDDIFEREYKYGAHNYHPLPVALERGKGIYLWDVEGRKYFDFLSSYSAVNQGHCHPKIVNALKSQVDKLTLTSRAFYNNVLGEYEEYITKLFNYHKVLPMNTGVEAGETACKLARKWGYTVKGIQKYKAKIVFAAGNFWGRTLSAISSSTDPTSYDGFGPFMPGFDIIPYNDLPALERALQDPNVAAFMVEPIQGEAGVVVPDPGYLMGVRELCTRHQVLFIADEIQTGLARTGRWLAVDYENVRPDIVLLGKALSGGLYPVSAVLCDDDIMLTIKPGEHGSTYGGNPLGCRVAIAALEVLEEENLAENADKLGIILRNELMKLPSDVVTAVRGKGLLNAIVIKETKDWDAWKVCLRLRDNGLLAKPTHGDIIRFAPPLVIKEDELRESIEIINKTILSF
UniProt Q9NX40: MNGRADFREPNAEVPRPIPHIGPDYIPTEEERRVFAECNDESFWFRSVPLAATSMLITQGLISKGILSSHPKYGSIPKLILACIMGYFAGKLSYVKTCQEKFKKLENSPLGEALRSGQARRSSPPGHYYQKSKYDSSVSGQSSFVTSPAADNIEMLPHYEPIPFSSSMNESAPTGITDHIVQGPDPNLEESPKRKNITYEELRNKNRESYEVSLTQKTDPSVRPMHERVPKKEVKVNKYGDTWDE
UniProt O75147: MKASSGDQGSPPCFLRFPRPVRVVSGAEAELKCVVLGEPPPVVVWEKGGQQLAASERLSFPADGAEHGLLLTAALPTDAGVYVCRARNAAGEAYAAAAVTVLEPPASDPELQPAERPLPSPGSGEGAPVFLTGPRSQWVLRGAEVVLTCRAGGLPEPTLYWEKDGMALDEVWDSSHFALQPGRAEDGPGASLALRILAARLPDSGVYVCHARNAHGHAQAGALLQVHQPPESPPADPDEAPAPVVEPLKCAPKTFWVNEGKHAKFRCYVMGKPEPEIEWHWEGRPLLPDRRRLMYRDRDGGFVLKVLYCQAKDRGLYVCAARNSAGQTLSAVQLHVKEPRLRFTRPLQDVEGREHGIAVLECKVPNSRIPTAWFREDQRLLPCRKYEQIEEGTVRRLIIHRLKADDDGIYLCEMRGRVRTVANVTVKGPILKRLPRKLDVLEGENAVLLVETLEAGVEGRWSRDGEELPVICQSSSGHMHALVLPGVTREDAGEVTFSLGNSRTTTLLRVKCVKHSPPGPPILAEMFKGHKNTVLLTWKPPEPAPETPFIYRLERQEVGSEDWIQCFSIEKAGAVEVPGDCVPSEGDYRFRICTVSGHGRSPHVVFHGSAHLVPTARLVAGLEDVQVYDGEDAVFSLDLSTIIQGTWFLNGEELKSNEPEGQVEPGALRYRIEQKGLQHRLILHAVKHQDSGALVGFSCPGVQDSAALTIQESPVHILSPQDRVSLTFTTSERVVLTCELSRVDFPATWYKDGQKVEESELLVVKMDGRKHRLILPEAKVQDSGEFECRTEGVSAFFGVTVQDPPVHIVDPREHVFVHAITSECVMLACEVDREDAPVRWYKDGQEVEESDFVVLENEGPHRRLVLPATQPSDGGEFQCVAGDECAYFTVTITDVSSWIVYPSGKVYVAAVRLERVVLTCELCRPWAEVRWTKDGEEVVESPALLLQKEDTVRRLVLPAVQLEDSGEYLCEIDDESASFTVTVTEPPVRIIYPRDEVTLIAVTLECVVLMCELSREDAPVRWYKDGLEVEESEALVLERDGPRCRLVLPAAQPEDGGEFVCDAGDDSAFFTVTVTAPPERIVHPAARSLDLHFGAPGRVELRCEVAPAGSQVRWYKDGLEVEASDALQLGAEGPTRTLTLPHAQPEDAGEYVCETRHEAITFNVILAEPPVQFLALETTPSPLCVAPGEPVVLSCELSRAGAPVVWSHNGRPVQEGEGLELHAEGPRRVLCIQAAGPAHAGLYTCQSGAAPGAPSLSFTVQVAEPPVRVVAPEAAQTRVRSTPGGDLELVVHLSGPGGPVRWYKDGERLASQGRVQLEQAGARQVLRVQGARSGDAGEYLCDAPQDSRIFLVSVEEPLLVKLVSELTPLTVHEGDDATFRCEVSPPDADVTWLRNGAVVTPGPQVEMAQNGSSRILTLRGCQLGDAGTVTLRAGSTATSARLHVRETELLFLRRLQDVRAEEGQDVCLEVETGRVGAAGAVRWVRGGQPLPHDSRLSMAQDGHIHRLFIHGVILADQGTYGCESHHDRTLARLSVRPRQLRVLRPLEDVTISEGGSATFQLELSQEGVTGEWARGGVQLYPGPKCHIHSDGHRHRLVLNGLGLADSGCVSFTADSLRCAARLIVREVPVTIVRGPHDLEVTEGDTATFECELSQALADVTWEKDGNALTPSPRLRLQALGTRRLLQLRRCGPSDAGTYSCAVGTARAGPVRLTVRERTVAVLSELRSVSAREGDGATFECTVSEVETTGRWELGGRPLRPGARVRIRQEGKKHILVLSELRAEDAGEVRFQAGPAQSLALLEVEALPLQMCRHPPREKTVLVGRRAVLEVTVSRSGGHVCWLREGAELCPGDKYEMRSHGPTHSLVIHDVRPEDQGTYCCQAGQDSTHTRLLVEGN
UniProt Q99497, whole entry, looked up: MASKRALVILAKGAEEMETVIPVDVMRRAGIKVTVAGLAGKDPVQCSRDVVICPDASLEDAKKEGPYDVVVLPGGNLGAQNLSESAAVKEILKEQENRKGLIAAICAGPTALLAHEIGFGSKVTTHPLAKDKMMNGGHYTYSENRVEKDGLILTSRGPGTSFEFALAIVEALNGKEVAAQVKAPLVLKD
UniProt O75459: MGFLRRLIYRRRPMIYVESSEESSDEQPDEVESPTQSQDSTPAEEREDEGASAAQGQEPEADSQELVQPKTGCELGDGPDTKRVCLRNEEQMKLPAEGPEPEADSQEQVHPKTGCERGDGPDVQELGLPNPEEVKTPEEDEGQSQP
UniProt Q9H4L5: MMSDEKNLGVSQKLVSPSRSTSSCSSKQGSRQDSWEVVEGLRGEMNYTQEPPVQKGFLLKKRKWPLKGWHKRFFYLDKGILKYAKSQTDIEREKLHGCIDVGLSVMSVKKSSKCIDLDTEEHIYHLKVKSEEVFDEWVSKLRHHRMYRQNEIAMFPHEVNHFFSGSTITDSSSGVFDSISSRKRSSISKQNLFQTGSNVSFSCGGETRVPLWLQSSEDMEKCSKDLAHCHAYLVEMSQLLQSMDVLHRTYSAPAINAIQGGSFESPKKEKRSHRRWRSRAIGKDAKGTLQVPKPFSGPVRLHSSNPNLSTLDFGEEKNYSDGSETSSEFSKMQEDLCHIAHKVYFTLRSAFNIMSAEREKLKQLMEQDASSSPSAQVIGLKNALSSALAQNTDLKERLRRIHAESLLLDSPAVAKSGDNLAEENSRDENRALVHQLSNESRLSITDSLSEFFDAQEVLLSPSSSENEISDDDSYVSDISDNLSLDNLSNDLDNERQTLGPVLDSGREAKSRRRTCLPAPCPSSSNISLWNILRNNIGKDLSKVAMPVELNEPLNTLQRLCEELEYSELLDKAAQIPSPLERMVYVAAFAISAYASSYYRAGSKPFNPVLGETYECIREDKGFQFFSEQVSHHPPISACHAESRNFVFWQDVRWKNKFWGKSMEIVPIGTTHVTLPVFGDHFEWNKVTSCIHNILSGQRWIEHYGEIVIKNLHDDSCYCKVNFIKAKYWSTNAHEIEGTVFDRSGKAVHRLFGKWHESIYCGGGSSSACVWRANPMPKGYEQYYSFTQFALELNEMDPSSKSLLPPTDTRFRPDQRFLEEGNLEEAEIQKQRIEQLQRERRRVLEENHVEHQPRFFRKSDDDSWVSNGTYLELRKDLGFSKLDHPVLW
UniProt Q92882: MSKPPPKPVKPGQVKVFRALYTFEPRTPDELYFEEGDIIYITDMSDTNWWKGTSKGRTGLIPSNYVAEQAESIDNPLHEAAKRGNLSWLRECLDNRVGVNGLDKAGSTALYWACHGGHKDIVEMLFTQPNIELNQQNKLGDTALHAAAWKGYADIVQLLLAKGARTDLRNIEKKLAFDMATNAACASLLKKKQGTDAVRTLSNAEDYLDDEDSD
UniProt Q9H074: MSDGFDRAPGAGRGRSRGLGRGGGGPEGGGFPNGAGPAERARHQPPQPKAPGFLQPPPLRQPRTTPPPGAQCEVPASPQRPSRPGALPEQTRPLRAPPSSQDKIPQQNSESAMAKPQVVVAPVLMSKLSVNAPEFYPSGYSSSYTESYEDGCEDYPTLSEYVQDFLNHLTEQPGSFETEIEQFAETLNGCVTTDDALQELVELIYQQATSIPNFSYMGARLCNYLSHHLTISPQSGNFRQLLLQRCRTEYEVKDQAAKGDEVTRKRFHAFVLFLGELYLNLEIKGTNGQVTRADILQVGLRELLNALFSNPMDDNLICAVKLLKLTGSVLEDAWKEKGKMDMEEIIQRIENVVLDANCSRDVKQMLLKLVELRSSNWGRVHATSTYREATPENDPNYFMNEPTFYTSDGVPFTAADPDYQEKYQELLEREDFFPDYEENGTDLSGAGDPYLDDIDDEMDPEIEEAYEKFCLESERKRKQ
UniProt Q8N543: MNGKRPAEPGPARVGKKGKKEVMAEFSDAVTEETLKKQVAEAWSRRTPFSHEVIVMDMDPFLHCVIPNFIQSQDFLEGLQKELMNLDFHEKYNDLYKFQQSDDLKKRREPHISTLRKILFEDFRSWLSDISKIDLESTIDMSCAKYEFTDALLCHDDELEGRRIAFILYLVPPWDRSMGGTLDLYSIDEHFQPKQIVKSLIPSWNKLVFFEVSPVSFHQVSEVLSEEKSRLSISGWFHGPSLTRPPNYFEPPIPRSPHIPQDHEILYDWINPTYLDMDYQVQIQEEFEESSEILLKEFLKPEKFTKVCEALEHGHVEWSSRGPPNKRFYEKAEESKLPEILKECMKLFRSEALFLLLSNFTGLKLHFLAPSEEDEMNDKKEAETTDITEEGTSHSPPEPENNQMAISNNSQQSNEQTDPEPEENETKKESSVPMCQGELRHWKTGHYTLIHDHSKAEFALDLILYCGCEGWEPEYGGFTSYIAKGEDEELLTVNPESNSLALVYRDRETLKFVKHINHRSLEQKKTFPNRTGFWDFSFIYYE
UniProt P07237: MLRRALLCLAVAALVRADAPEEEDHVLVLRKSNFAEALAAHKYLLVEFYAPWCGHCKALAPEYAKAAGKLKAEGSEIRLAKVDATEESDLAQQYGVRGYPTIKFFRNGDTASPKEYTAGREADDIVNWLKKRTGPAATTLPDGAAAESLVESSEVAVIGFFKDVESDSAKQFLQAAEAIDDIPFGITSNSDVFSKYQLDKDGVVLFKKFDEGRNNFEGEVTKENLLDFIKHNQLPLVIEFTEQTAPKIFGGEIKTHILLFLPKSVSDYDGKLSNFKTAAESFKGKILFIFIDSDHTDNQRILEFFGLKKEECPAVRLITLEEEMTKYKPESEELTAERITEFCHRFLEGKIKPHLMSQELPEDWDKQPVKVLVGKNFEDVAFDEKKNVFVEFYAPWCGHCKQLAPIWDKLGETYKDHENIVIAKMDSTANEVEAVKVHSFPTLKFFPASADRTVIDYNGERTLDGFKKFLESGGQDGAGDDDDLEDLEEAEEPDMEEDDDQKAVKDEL

These targets were tested with C=CC(=O)N1CCC[C@@H](n2nc(-c3ccc(Oc4ccccc4)cc3)c3c(N)ncnc32)C1 [ibrutinib] (assay: log2 fold change, soluble protein after heating vs DMSO (PISA); higher = thermal stabilisation; K562 lysate, 10 uM; active = over 0.2 and 3.5 SD of the protein, either way, in both replicates (recomputed)).
Summary of the method: (§1)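 The values are log-two fold changes in thermal stability compared with solvent controls and come from duplicates. They were obtained by TMTpro 16plex LC-MS/MS, with channel sums equalised, on the supernatant after 21,000xg for 90 min. That supernatant came from crude K562 extract at 1 mg/mL protein treated with 10 μM compound for 30 min, heated for 3 min across 48°C-58°C, pooled and brought to 0.5% NP-40 at 4°C.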
PANX1 (UniProt Q96RD7) was tested, and the log2 fold change was inactive: 0.033.
With OPLAH (UniProt O14841) the log2 fold change was inactive: -0.008.
For OIP5 (UniProt O43482), the log2 fold change was inactive: 0.165.
With OXCT1 (UniProt P55809) the log2 fold change was inactive: -0.005.
With OSBPL11 (UniProt Q9BXB4) the log2 fold change was inactive: 0.02.
For NUP214 (UniProt P35658), the log2 fold change was inactive: -0.014.
In the case of PARL (UniProt Q9H300), the log2 fold change is reported as inactive: -0.012.
In the case of OAT (UniProt P04181), the log2 fold change is reported as inactive: -0.007.
In the case of OGA (UniProt O60502), the log2 fold change is reported as inactive: -0.006.
For OCIAD1 (UniProt Q9NX40), the log2 fold change was inactive: 0.055.

These targets were tested with CC(=O)c1cnc2ccc(-c3cc(Cl)c(O)c(Cl)c3)nc2c1N[C@H]1CC[C@H](CN(C)C)CC1 in the same assay as above.
Summary of the method: as §1
In the case of OBI1 (UniProt Q5W0B1), the log2 fold change is reported as inactive: 0.027.
OBSL1 (UniProt O75147) was tested, and the log2 fold change was inactive: 0.015.
For OGDH (UniProt Q02218), the log2 fold change was inactive: 0.
For PAAF1 (UniProt Q9BRP4), the log2 fold change was inactive: 0.001.
With OS9 (UniProt Q13438) the log2 fold change was inactive: 0.003.
For PARK7 (UniProt Q99497), the log2 fold change was inactive: 0.002.
With PAGE1 (UniProt O75459) the log2 fold change was inactive: -0.002.
In the case of OSBPL3 isoform 2 (UniProt Q9H4L5), the log2 fold change is reported as inactive: -0.007.
In the case of PAICS (UniProt E9PBS1), the log2 fold change is reported as inactive: -0.053.
With OSTF1 (UniProt Q92882) the log2 fold change was inactive: 0.023.
For PAIP1 (UniProt Q9H074), the log2 fold change was inactive: 0.001.
With OGFOD1 (UniProt Q8N543) the log2 fold change was inactive: 0.004.
In the case of P4HB (UniProt P07237), the log2 fold change is reported as inactive: 0.007.
With OGFR (UniProt Q9NZT2) the log2 fold change was inactive: 0.02.
